{
  "sequences": {"note": "The chains behind the UniProt entries cited, without tags or fusion partners.", "UniProt Q0JBA9, entry or part of it": "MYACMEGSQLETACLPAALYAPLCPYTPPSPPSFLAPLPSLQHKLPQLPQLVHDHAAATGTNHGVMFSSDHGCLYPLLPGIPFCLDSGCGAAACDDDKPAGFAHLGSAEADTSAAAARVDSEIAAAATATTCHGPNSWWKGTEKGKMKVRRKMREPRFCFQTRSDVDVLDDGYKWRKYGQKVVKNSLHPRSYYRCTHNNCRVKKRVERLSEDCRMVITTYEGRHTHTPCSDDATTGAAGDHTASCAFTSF"},
  "source": "paper PMC7819943",
  "about": "“Rice protein-binding microarrays: a tool to detect cis-acting elements near promoter regions in rice”",
  "note": "The other results are listed elsewhere or left out.",
  "data": [
    {"target": "OsWRKY34 (Oryza sativa, UniProt Q0JBA9 1-250)", "assay": "protein-binding microarray (RPBM); PBS, 2% BSA, 51.3 ng/ul salmon testes DNA, 50 uM zinc acetate, 200 nM TF, 25 C, 1 h; high values mean tight binding", "details": "protein: recombinant; tags: N-terminal polyhistidine and DsRed monomer fusion (pET32a); label: CyDye5-dUTP incorporated in the synthesized complementary strand; 3' TTTTT single-stranded linker to array surface; dsDNA, one strand shown", "procedure,_shortened": "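The binding signal is fluorescence intensity per array feature (arbitrary units). Readings came from an Axon 4000B scanner after a washed, 2% BSA-blocked, double-stranded custom Agilent array had been incubated for 1 h at 25 °C with 200 nM protein and 50 µM zinc acetate. The protein was a Ni–NTA-purified transcription factor fused N-terminally to polyhistidine and DsRed, expressed in E. coli BL21-CodonPlus.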", "values": [
      {"sequence": "CATCGCATTTCTTCCAACAGATTTGATGACTCCTTTTTACCGGAGTCACCTAGTGCAG", "binding signal": "9690 fluorescence intensity (a.u.)"},
      {"sequence": "CGGTCCACCCTGAACTCCACGGTCCCACACCTCACCCAGTCGGAGTCACCTAGTGCAG", "binding signal": "9320 fluorescence intensity (a.u.)"},
      {"sequence": "ACCCACATGGGTCCCACATGTCATCCTCACTCCTCATTTCCGGAGTCACCTAGTGCAG", "binding signal": "12700 fluorescence intensity (a.u.)"},
      {"sequence": "CTGTCAAATTTTGTTCCTCATATACTCTGCCATCCATTGCCGGAGTCACCTAGTGCAG", "binding signal": "8200 fluorescence intensity (a.u.)"},
      {"sequence": "TGGGCTGGCTGCTAAGATGACTTTTCTACTCCAGCCATGTCGGAGTCACCTAGTGCAG", "binding signal": "8450 fluorescence intensity (a.u.)"},
      {"sequence": "ATTTATAGGTTTTGCACGTGTTGTCCAAATGTGATCCTTTCGGAGTCACCTAGTGCAG", "binding signal": "8100 fluorescence intensity (a.u.)"},
      {"sequence": "CGCCGCCGCTCCCGCCACCGCCACATCCCTTGCCGGTGATCGGAGTCACCTAGTGCAG", "binding signal": "9700 fluorescence intensity (a.u.)"},
      {"sequence": "TGCGGATGGGATGGAGAGCGCAGGAGGGGTGGGTTGTTGTCGGAGTCACCTAGTGCAG", "binding signal": "10800 fluorescence intensity (a.u.)"},
      {"sequence": "GCTACAGGACCACATCGCCAGCGGCCACCTCTCCCGCGCTCGGAGTCACCTAGTGCAG", "binding signal": "8740 fluorescence intensity (a.u.)"},
      {"sequence": "ATTAGTCACACGCACTCACACCAACATTCACACAAACTCTCGGAGTCACCTAGTGCAG", "binding signal": "8170 fluorescence intensity (a.u.)"},
      {"sequence": "ACGCTCCACTCCCGTGATCATCACCTCCTTCCCTTTCCAGCGGAGTCACCTAGTGCAG", "binding signal": "8430 fluorescence intensity (a.u.)"},
      {"sequence": "GTTTATCCGTGGGTAAAAACCCTATTAGGGTTGGGTTTGTCGGAGTCACCTAGTGCAG", "binding signal": "9890 fluorescence intensity (a.u.)"},
      {"sequence": "AGCAGTTAACCCACCGTACAACAAAATCAATCAGTTTCTTCGGAGTCACCTAGTGCAG", "binding signal": "8270 fluorescence intensity (a.u.)"},
      {"sequence": "AGCACCGGTGGCAGCGGCGGACCGTGGAGGGAGGGAGGGGCGGAGTCACCTAGTGCAG", "binding signal": "9770 fluorescence intensity (a.u.)"},
      {"sequence": "GGCTGGTTTGACCGCACATATACCGCCGGTTTGACCAACTCGGAGTCACCTAGTGCAG", "binding signal": "10600 fluorescence intensity (a.u.)"},
      {"sequence": "GTCACTCGCACCCAGCTTGCTCGCTCGCTTGATCGACACACGGAGTCACCTAGTGCAG", "binding signal": "8160 fluorescence intensity (a.u.)"},
      {"sequence": "TTGTTGTAATTATGTCATCGGTTTGTATTTAGTACCATATCGGAGTCACCTAGTGCAG", "binding signal": "8050 fluorescence intensity (a.u.)"},
      {"sequence": "CGACATTGCTCCATCTCTCCTTCACGGGCCAACATGTACACGGAGTCACCTAGTGCAG", "binding signal": "9250 fluorescence intensity (a.u.)"},
      {"sequence": "CATCATCACATCCAAAACTTTTATACACACGTAAACTTTCCGGAGTCACCTAGTGCAG", "binding signal": "10300 fluorescence intensity (a.u.)"},
      {"sequence": "GGTACGCATTTCAACTTACTACTGTATCTGTATAACTTACCGGAGTCACCTAGTGCAG", "binding signal": "9010 fluorescence intensity (a.u.)"},
      {"sequence": "TTTTTTAATAGATGACGCCGTTGACCTTTTCTCACATGTTCGGAGTCACCTAGTGCAG", "binding signal": "15100 fluorescence intensity (a.u.)"},
      {"sequence": "CATCGGATATTGTATTATGGTGTTGTATGGGTTGTTCGGGCGGAGTCACCTAGTGCAG", "binding signal": "14000 fluorescence intensity (a.u.)"},
      {"sequence": "GTTGGGGTGAAATTTCTTGGCGATGGCGCCGTACTCCTTGCGGAGTCACCTAGTGCAG", "binding signal": "8510 fluorescence intensity (a.u.)"},
      {"sequence": "TCCGGCCCATTAATCTCGGCCCAACATCTCGTTCTCACCTCGGAGTCACCTAGTGCAG", "binding signal": "11900 fluorescence intensity (a.u.)"},
      {"sequence": "ACTTCGTACCCTTAGACTGTAATGATTTTTTTTAAAAAAACGGAGTCACCTAGTGCAG", "binding signal": "9000 fluorescence intensity (a.u.)"},
      {"sequence": "TTGGTCATAGTTGCTTGGATAATTTGACCAAGGAAGATGGCGGAGTCACCTAGTGCAG", "binding signal": "8500 fluorescence intensity (a.u.)"},
      {"sequence": "CCGTTACGTTTTCCGTTCCCGTTCCAGCCGCGTTTCCTCTCGGAGTCACCTAGTGCAG", "binding signal": "11100 fluorescence intensity (a.u.)"},
      {"sequence": "GCTTCTCACTCTGAATATCTGATTTTTTTTTAAAAAAAAACGGAGTCACCTAGTGCAG", "binding signal": "8850 fluorescence intensity (a.u.)"},
      {"sequence": "GCCTGCCTCTTTCTTCTTCTCTTACGAAACCAAAACAACACGGAGTCACCTAGTGCAG", "binding signal": "8150 fluorescence intensity (a.u.)"},
      {"sequence": "TTTTTAATTTTATTTATACTCAATTTATCATGCACTAATGCGGAGTCACCTAGTGCAG", "binding signal": "10800 fluorescence intensity (a.u.)"},
      {"sequence": "GTGTTTTTTTTCTATTTTTCTTCCTGTTTCTTTTGTTTTTCGGAGTCACCTAGTGCAG", "binding signal": "12700 fluorescence intensity (a.u.)"},
      {"sequence": "CGACGACGGCTTCCCGGCGCCGCGCCTCTTCTCGCAGGGCCGGAGTCACCTAGTGCAG", "binding signal": "8460 fluorescence intensity (a.u.)"},
      {"sequence": "TTACCTTTATATATTTTTTCCAACTAGCTGCTGCATTTTACGGAGTCACCTAGTGCAG", "binding signal": "9070 fluorescence intensity (a.u.)"},
      {"sequence": "ACTTAGCACTTGATTACATATATTTTGGTCGTGTAGTTGTCGGAGTCACCTAGTGCAG", "binding signal": "11300 fluorescence intensity (a.u.)"},
      {"sequence": "GCGACTCATTGGGCACTTCCCTACCAACTCCGTGAGTTATCGGAGTCACCTAGTGCAG", "binding signal": "8670 fluorescence intensity (a.u.)"},
      {"sequence": "GTCTTATTTAAATTTTTTTGAAATGTTTGTTGACCATTCGCGGAGTCACCTAGTGCAG", "binding signal": "8700 fluorescence intensity (a.u.)"},
      {"sequence": "GTACGGAACAAAACACCCGCATTTCACCCGCATTTCTTAACGGAGTCACCTAGTGCAG", "binding signal": "9610 fluorescence intensity (a.u.)"},
      {"sequence": "TGAGTCAGTGGTTGGTCATCGTTGTCCGCTTTGTTTGGACCGGAGTCACCTAGTGCAG", "binding signal": "9290 fluorescence intensity (a.u.)"},
      {"sequence": "CGCGGATCCTTCGTGGGTGGTGATGGGAGGTGCGGATCCGCGGAGTCACCTAGTGCAG", "binding signal": "11800 fluorescence intensity (a.u.)"},
      {"sequence": "GGCTCATGCATGGCGCTATGTACTGTTAATTCCGTTCCTTCGGAGTCACCTAGTGCAG", "binding signal": "8850 fluorescence intensity (a.u.)"},
      {"sequence": "CCTACTGTGGGCCCCACACAAATTCCTCCTCACATCTCCTCGGAGTCACCTAGTGCAG", "binding signal": "8450 fluorescence intensity (a.u.)"},
      {"sequence": "CGGGTTGGCATCGTTGTCGTTGTCGAGGAGGCTGAGGAGGCGGAGTCACCTAGTGCAG", "binding signal": "8510 fluorescence intensity (a.u.)"},
      {"sequence": "CATATTATGATCTTTCTCTTTCTTTCTTTTTTATACCTTTCGGAGTCACCTAGTGCAG", "binding signal": "11500 fluorescence intensity (a.u.)"},
      {"sequence": "TATCTATTACGAGTTCATTCTCAATCCTGCAATCCTTCAGCGGAGTCACCTAGTGCAG", "binding signal": "8090 fluorescence intensity (a.u.)"},
      {"sequence": "TGGAGCGGGTTTGGGTAGAGCTCCACGTCGCGGTGGGCTTCGGAGTCACCTAGTGCAG", "binding signal": "8880 fluorescence intensity (a.u.)"},
      {"sequence": "GCCCGGTGAAGCATCCGTACTCACGCTCATCCTCTTCCTCCGGAGTCACCTAGTGCAG", "binding signal": "8140 fluorescence intensity (a.u.)"},
      {"sequence": "GCCCTGTCTGCTGCTGCGCACAGTTCTTTTCATCCTTTTCCGGAGTCACCTAGTGCAG", "binding signal": "8710 fluorescence intensity (a.u.)"},
      {"sequence": "GTTCCATCGCATGCTCAACTTGGGGCAGGTCAGGTAAGCTCGGAGTCACCTAGTGCAG", "binding signal": "8670 fluorescence intensity (a.u.)"},
      {"sequence": "AGACCAATTCCTCGCGCCACCTCCACCACCGCCTCCGCCGCGGAGTCACCTAGTGCAG", "binding signal": "10100 fluorescence intensity (a.u.)"},
      {"sequence": "TTTTGCCAAATTACAGATGCATCTGTTTTGAGTTGTCTTACGGAGTCACCTAGTGCAG", "binding signal": "8690 fluorescence intensity (a.u.)"},
      {"sequence": "TCCATGACAGAGAAAGCAAGGGAAGAATTCTGGGTAATCACGGAGTCACCTAGTGCAG", "binding signal": "8790 fluorescence intensity (a.u.)"},
      {"sequence": "CCACAGCGCCTCCACTGCCTGCAGGGACGCCACCGCTACCCGGAGTCACCTAGTGCAG", "binding signal": "8450 fluorescence intensity (a.u.)"},
      {"sequence": "TGCTGCTCATTTGTCCCTGTCTCAACACCCCTTCTATCTACGGAGTCACCTAGTGCAG", "binding signal": "10000 fluorescence intensity (a.u.)"},
      {"sequence": "GAGGTAGAAGTGAATCCGACATTTTTTATTTGATGCTTACCGGAGTCACCTAGTGCAG", "binding signal": "8660 fluorescence intensity (a.u.)"}
    ]}
  ]
}
